Measured values as given in patent publication EP0478101B1 (W.R. Grace & Co.-Conn., priority 1990, dated 1992).
Strings that start with PEPTIDE1 are HELM notation: dots part the residues, brackets hold end groups and non-standard residues.

Test: general procedure: Boc solid-phase peptide synthesis; phenylacetamidomethyl (PAM) polystyrene resin, or p-methylbenzhydrylamine (mBHA) resin
Conditions: oxidative folding step, analytical reverse phase HPLC

PEPTIDE1{C.S.V.T.C.G}$PEPTIDE1,PEPTIDE1,1:R3-5:R3$$$V2.0
final HPLC purity: 95%
